Laboratory results reported in paper PMC7181051, “Probing the Protein-Protein Interaction between the ATRXADD Domain and the Histone H3 Tail” (Molecules, 2020).
No constants are given. Whether binding was seen depends on the method and setting.

T1: ADD domain of ATRX (ATRXADD) (UniProt P46100)
T1 sequence: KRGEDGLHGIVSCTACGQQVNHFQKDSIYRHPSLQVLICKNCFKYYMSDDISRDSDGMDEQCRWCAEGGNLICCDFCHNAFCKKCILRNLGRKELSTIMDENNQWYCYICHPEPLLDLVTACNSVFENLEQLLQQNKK

B1: H3_(1-5) peptide (peptide)
peptide: ARTKQ
B2: H3_(7-11)K9me3 peptide (peptide)
peptide: ARKST
modifications: trimethyl-lysine at K9 of H3 (third residue of the peptide), printed K(me3)
B3: H3_(2-6) peptide (peptide)
peptide: RTKQT
B4: H3_(3-8) peptide (peptide)
peptide: TKQTAR
B5: H3_(1-7)K4me3 peptide (peptide)
peptide: ARTKQTA
modifications: trimethyl-lysine at 4, printed K(me3)
B6: H3_(3-11)K9me3 peptide (peptide)
peptide: TKQTARKST
modifications: trimethyl-lysine at K9 of H3 (seventh residue of the peptide), printed K(me3)

These binders were tested against T1, ADD domain of ATRX (ATRXADD) (assay: fluorescence polarisation; competition as in the FP assay, two peptides (H3_(1-5) + H3_(7-11)K9me3) added in combination; both purified).

| Binder | binding |
| --- | --- |
| B1 | no binding (condition: added together with H3_(7-11)K9me3) |
| B2 | no binding (condition: added together with H3_(1-5)) |

Each binder was assayed against T1, ADD domain of ATRX (ATRXADD) (assay: fluorescence polarisation; competition: ATRXADD (5 μM) and H3_(1-15)K9me3-FAM (0.75 μM) incubated 15 minutes at room temperature, then unlabeled peptide at varying concentrations; PBS; 384-well plate; both purified).

| Binder | binding |
| --- | --- |
| B3 | no binding (tested: 100 µM (highest concentration tested)) |
| B4 | no binding (tested: 100 µM (highest concentration tested)) |
| B5 | no binding (tested: 100 µM (highest concentration tested)) |
| B2 | no binding (tested: 100 µM (highest concentration tested)) |
| B6 | no binding (tested: 100 µM (highest concentration tested)) |
